Source: PMC5389555
No constants are given. Whether binding was seen depends on the method and setting. Binding seen in cells or lysates may run through a third protein. Some results given as binding are weak or reduced against the parent protein; the word gives no strength.

Protein sequences, listed by entry. Tags and fused reporters are not part of them. Lines headed by an entry give the natural chain unless they say otherwise; changes in a name come on top.
UniProt P49841: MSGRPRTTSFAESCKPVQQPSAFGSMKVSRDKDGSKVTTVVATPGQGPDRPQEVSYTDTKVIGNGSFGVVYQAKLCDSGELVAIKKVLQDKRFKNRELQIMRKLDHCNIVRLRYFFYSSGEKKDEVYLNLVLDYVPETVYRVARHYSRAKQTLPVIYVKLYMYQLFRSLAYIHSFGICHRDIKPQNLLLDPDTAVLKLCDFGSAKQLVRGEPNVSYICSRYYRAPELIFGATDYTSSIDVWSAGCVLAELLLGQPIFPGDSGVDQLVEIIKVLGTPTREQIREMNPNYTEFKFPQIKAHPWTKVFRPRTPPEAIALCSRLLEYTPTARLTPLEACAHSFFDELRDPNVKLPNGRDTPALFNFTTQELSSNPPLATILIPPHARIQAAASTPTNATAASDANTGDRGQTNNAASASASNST

Columns and labels:
[1] = target: Glycogen synthase kinase 3β (GSK3β) (endogenous) (human (endogenous in HEK293T)) (UniProt P49841); experiment: co-IP; endogenous GSK3β precipitated from HEK293T lysates (cells ± 2 μM 99021, 48 h) with mouse anti-GSK3β antibody on Protein G Dynabeads, 4°C overnight; mouse IgG control; blots for DGCR8 and p72
HA-GSK3β (wild-type) = HA-GSK3β (wild-type) (UniProt P49841); experiment: co-IP; HEK293T transfected with HA-GSK3β-WT, -S9A, -K85R or -K85A,K86A; lysates pre-cleared, EZView anti-HA agarose beads, 4°C overnight; blots for p72, DGCR8 and HA
HA-GSK3β-K85A,K86A = HA-GSK3β-K85A,K86A (UniProt P49841); experiment: as above

B1: DiGeorge Critical Region 8 (DGCR8) (endogenous) (protein, UniProt Q8WYQ5 1-773)
chain: METDESPSPLPCGPAGEAVMESRARPFQALPREQSPPPPLQTSSGAEVMDVGSGGDGQSELPAEDPFNFYGASLLSKGSFSKGRLLIDPNCSGHSPRTARHAPAVRKFSPDLKLLKDVKISVSFTESCRSKDRKVLYTGAERDVRAECGLLLSPVSGDVHACPFGGSVGDGVGIGGESADKKDEENELDQEKRVEYAVLDELEDFTDNLELDEEGAGGFTAKAIVQRDRVDEEALNFPYEDDFDNDVDALLEEGLCAPKKRRTEEKYGGDSDHPSDGETSVQPMMTKIKTVLKSRGRPPTEPLPDGWIMTFHNSGVPVYLHRESRVVTWSRPYFLGTGSIRKHDPPLSSIPCLHYKKMKDNEEREQSSDLTPSGDVSPVKPLSRSAELEFPLDEPDSMGADPGPPDEKDPLGAEAAPGALGQVKAKVEVCKDESVDLEEFRSYLEKRFDFEQVTVKKFRTWAERRQFNREMKRKQAESERPILPANQKLITLSVQDAPTKKEFVINPNGKSEVCILHEYMQRVLKVRPVYNFFECENPSEPFGASVTIDGVTYGSGTASSKKLAKNKAARATLEILIPDFVKQTSEEKPKDSEELEYFNHISIEDSRVYELTSKAGLLSPYQILHECLKRNHGMGDTSIKFEVVPGKNQKSEYVMACGKHTVRGWCKNKRVGKQLASQKILQLLHPHVKNWGSLLRMYGRESSKMVKQETSDKSVIELQQYAKKNKPNLHILSKLQEEMKRLAEEREETRKKPKMSIVASAQPGGEPLCTVDV
- binding [1]: binds
- binding (HA-GSK3β (wild-type)): binds
- binding (HA-GSK3β-K85A,K86A): no binding
